These are yes or no findings as the source states them, for the method shown. In cells and extracts the contact can be indirect. Some binding calls cover weakened binding; strength is not graded here. Tags and fused reporters may be left off the sequences shown.
Target: T1, LIKE HETEROCHROMATIN PROTEIN 1 (LHP1) fused to NYFP (Arabidopsis thaliana) (UniProt Q946J8)
T1 sequence: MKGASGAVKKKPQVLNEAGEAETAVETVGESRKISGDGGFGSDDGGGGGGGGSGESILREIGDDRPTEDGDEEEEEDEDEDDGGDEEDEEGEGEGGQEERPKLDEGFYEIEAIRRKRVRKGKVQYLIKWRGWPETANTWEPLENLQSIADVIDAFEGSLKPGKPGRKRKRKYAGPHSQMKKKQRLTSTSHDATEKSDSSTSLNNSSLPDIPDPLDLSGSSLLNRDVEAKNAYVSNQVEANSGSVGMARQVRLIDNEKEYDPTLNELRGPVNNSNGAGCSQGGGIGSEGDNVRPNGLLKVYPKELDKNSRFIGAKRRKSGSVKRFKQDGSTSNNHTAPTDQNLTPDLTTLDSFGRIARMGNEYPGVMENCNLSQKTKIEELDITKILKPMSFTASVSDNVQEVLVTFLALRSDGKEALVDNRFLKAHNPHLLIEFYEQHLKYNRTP
Assay: split reporter; BiFC in transiently transformed Nicotiana benthamiana leaves; YFPC-VIM1 co-transformed with YFPN-LHP1, mCherry as membrane and nuclear marker; confocal microscopy 2 days after infiltration

- binding: binds
B1: VARIANT IN …ON 1 (VIM1) fused to CYFP (protein, UniProt Q8VYZ0 1-645)
chain: MARDIQLPCDGDGVCMRCKSNPPPEESLTCGTCVTPWHVSCLSSPPKTLASTLQWHCPDCSGEIDPLPVSGGATGFESAGSDLVAAIRAIEADESLSTEEKAKMRQRLLSGKGVEEDDEEEKRKKKGKGKNPNLDVLSALGDNLMCSFCMQLPERPVTKPCGHNACLKCFEKWMGQGKRTCGKCRSIIPEKMAKNPRINSSLVAAIRLAKVSKSAAATTSKVFHFISNQDRPDKAFTTERAKKTGKANAASGKIYVTIPPDHFGPIPAENDPVRNQGLLVGESWEDRLECRQWGAHFPHVAGIAGQSTYGAQSVALSGGYKDDEDHGEWFLYTGSGGRDLSGNKRTNKEQSFDQKFEKSNAALKLSCKLGYPVRVVRSHKEKRSAYAPEEGVRYDGVYRIEKCWRKVGVQGSFKVCRYLFVRCDNEPAPWTSDENGDRPRPIPNIPELNMATDLFERKETPSWDFDEGEGCWKWMKPPPASKKSVNVLAPEERKNLRKAIKAAHSNTMRARLLKEFKCQICQQVLTLPVTTPCAHNFCKACLEAKFAGKTLVRERSTGGRTLRSRKNVLNCPCCPTDISDFLQNPQVNREVAEVIEKLKTQEEDTAELEDEDEGECSGTTPEEDSEQPKKRIKLDTDATVSATIR
